Test results: article PMC8298096
These are yes or no findings as the source states them, for the method shown.

Protein sequences, listed by entry. Tags and fused reporters are not part of them. Residues count along the entry.
UniProt Q5GH54, residues 1-357: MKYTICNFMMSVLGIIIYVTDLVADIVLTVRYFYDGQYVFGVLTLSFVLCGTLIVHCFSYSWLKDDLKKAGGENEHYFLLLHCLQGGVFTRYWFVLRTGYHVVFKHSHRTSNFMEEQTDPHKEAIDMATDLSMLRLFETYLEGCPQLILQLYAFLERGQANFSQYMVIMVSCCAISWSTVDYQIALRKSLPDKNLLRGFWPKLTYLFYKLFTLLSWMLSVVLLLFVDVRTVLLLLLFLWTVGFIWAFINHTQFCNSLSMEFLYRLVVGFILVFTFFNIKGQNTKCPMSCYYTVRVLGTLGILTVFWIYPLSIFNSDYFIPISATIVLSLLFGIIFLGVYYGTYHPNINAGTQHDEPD

Molecular target: caspase-3-cleaved rXKR9 (Rattus norvegicus) (UniProt Q5GH54)
Test: SEC; detergent-solubilised protein on Superdex 200 10/300 GL; 25 mM HEPES pH 7.5, 200 mM NaCl, 0.01% LMNG; 4°C; both purified

binding: no binding
Substance: caspase-3-cleaved rXKR9 (from UniProt Q5GH54 1-357) (domain or fragment)
